According to patent US20120309087A1, “CANCER THERAPY” (University Court of The University of Dundee, priority 2006, published 2012):
Several values for one entry are separate records, joined by “and”; a condition that tells them apart may be missing. Identical values can stand only once. For some of these results: For at least one compound, name, drawing or mass did not settle the structure. Some of these results come from one statement about several compounds together.

Experiments:
Fas-induced killing = conditions: WO 01/57189; cited from earlier work
[1] = test system: AKR1C1, AKR1B10, NQO1, GCLC, GCLM in A549 cells; assay: Constitutive protein levels of ARE-driven genes in A549 cells (Western blotting); type: cell-based, human; conditions: BTB09463 1, 5 μmol/l or retinoic acid 0.050-2.0 μmol/l, 24 hrs
[2] = test system: ARE-driven luciferase activity in AREc32 cells; assay: Induction of ARE-driven luciferase activity in stable AREc32 reporter cells; type: cell-based, human; conditions: 50 μM BSO 24 h, then 10 μM cisplatin, 20 μM melphalan, 100 μM BCNU or 100 μM chlorambucil 24 h
MCF7 cells = type: cell-based; conditions: MCF-7 or A549 cells; 72 h

O=C1C(CC[S+]([O-])c2ccccc2)C(=O)N(c2ccccc2)N1c1ccccc1 (stereo not shown) [sulfinpyrazone]
protection conferred by Nrf2 against Fas-induced killing (Fas-induced killing): antagonise protection conferred by Nrf2 against Fas-induced killing

CC(=O)c1ccc(OCc2ccc(Cl)c(Cl)c2)cc1 [BTB09463, 1-{4-[(3,4-dichlorobenzyl)oxy]phenyl}ethan-1-one]
repression of AKR1C1, AKR1B10, NQO1, GCLC and GCLM protein relative to control [1]: at least 50%

O=NN(CCCl)C(=O)NCCCl [BCNU, carmustine]
induction of luciferase activity after BSO pre-treatment [2]: > 10 fold and 10-15 fold
lowering of the IC50 value in combination with BTB09463 or retinoic acid (MCF7 cells): greater than 50%
